Measurements published in US20200277377A1.
No constants are given. Whether binding was seen depends on the method and setting.

How the values were obtained:
Assay in all cases: ELISA, coated antigen 2 µg/mL
[1] = biological target: CD22.ECD
[2] = biological target: FGFR-ECD
[3] = biological target: Factor VIII
[4] = biological target: OX40.ECD
[5] = biological target: VEGF

Measured: binding

B1: W3162-1.146.19-z12-uAb.IgG1K (antibody, V domains shown)
VH: QVQLQESGPGLVKPSETLSLTCSVTYHTITSGYDWTWIRKPPGKGMEWIGYISYSGNTNYNPSLKSRVTISRDTSKNQFFLKLSSVTAADTAVYYCASMMVPHYYVMDAWGQGTLVTVSS
VL: DIVMTQTPLSLSVTPGQPASISCRSSQSLLNSDGNTYLYWYLQKPGQSPQLLIYLVSKLGSGVPNRFSGSGSGTDFTLKISRVEAEDVGVYYCVQGTHDPWTFGGGTKVEIK
no binding (tested: 10 µg/mL): all assays above

B2: W3162_1.154.8-z35-uAb.IgG1K (antibody, V domains shown)
VH: QVQLVQSGAEVKKPGSSVKVSCKASGYTFTNYFMNWVRQAPGQGLEWMGRVDPEQGRADYAEKFKKRVTITADKSTSTAYMELSSLRSEDTAVYYCARRAMDNYGFAYWGQGTLVTVSS
VL: EIVLTQSPDFQSVTPKEKVTITCSANSALSYMYWYQQKPDQSPKLWVHGTSNLASGVPSRFSGSGSGTDFTLTINSLEAEDAATYYCHHWSNTQWTFGGGTKVEIK
no binding (tested: 10 µg/mL): all assays above
